Read-outs that look alike come from different tables or passages of the source. No constants are given. Whether binding was seen depends on the method and setting. In cells and extracts the contact can be indirect. Some results given as binding are weak or reduced against the parent protein; the word gives no strength. For part of these data: Tags and fused reporters may be left off the sequences shown.

Amino acid sequences for entries named in this document (tags omitted). Residues count along the entry.
UniProt Q9Y375, residues 25-327: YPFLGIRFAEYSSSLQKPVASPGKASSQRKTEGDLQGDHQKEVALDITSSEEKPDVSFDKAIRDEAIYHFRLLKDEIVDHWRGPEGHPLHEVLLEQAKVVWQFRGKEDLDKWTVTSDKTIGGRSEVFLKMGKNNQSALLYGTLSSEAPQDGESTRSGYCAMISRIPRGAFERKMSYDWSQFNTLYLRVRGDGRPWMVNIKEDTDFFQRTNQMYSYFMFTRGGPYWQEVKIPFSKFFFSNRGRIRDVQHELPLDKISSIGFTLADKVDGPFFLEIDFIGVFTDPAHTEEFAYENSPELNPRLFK
UniProt P03891: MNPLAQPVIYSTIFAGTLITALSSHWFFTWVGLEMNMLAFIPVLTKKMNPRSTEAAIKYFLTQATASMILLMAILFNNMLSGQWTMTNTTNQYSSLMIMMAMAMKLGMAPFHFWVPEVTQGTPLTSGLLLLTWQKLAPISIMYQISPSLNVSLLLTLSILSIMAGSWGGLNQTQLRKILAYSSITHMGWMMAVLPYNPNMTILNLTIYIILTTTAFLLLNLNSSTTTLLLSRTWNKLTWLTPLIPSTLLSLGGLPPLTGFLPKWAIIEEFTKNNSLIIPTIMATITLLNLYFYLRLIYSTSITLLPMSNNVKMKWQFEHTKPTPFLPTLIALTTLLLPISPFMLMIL
UniProt P03897: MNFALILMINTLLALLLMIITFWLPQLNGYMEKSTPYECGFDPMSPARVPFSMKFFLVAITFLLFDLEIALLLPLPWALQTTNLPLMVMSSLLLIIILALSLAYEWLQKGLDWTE
UniProt P03886: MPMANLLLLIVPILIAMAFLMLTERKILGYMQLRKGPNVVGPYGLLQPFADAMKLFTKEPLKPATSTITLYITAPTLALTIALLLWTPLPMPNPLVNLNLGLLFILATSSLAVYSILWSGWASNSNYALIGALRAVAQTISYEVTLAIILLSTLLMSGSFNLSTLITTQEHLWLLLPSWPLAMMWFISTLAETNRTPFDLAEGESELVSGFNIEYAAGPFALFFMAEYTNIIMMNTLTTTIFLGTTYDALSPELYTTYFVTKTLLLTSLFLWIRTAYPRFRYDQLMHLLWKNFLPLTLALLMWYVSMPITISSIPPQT
UniProt P03901: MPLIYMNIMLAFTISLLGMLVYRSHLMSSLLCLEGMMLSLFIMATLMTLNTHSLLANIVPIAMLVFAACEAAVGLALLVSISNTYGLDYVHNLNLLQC

The target of test [1] is T1, ECSIT (endogenous, 143B TK- cells) (human (endogenous in 143B TK-)) (UniProt Q9BQ95).
T1 sequence: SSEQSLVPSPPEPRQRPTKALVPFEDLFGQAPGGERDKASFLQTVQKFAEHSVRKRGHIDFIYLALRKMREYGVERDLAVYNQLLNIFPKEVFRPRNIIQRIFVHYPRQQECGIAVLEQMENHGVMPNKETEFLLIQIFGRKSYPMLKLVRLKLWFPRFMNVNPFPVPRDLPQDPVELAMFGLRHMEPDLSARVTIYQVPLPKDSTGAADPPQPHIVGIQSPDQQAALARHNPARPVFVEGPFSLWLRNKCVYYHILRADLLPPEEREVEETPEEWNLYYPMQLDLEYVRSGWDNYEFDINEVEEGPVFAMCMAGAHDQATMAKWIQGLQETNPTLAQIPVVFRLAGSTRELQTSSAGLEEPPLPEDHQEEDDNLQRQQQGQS
Put plainly: cross-linking.

The target in test [2] is NDUFAF1 (endogenous, 143B TK- cells) (human (endogenous in 143B TK-)) (UniProt Q9Y375). The test can be described thus: cross-linking.
In test [3] the target is T1, ECSIT (endogenous, 143B TK- cells) (human (endogenous in 143B TK-)). Put plainly: co-IP.
Test [4] deals with NDUFAF1 (endogenous, 143B TK- cells) (human (endogenous in 143B TK-)) (UniProt Q9Y375). Put plainly: co-IP.
For test [5], the target named is T2, COA1 with a C-terminal Flag tag (human) (UniProt Q9GZY4).
T2 sequence: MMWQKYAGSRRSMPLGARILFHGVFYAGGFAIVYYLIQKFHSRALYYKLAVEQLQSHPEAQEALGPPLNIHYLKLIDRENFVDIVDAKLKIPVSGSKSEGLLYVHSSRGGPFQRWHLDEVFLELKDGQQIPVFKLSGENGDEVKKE
The test can be described thus: co-IP.

Test [6] concerns the target T2, COA1 with a C-terminal Flag tag (human). The test can be described thus: co-IP. This is another data set of the same source.
Test [7] shares this target. The test can be described thus: co-IP. The source holds these as a separate data set.

Consider “ND2, newly synthesised mtDNA-encoded complex I subunit (143B TK- cells) (from UniProt P03891 1-347)”, for which the binding result in test [1], in test [2], in test [3] and in test [4] was “binds” throughout.
As for “ND3, newly synthesised mtDNA-encoded complex I subunit (143B TK- cells) (from UniProt P03897 1-115)”, the binding result in test [3] and in test [4] was “binds” in each case.
Consider “ND1, newly synthesised mtDNA-encoded complex I subunit (143B TK- cells) (from UniProt P03886 1-318)”, for which the binding entry in test [3] and in test [4] was “binds” in each case.
Regarding “ND3, newly synthesised mtDNA-encoded complex I subunit (HEK293T-derived cells) (from UniProt P03897 1-115)”, the binding result in test [5] was “binds”.
As for “ND4L, newly synthesised mtDNA-encoded complex I subunit (143B TK- cells) (from UniProt P03901 1-98)”, the binding result in test [3] and in test [4] was “binds” each time.
Turning to “ND2, newly synthesised mtDNA-encoded complex I subunit (HEK293T-derived cells) (from UniProt P03891 1-347)”, the binding result in test [5] is on record as “binds”.
On the same count and under the same terms, the same measure for “ND4L, newly synthesised mtDNA-encoded complex I subunit (HEK293T-derived cells) (from UniProt P03901 1-98)”: “binds”.

B1: ACAD9 (endogenous, HEK293T-derived cells) (protein, UniProt Q9H845 38-621)
chain: AFAKELFLGKIKKKEVFPFPEVSQDELNEINQFLGPVEKFFTEEVDSRKIDQEGKIPDETLEKLKSLGLFGLQVPEEYGGLGFSNTMYSRLGEIISMDGSITVTLAAHQAIGLKGIILAGTEEQKAKYLPKLASGEHIAAFCLTEPASGSDAASIRSRATLSEDKKHYILNGSKVWITNGGLANIFTVFAKTEVVDSDGSVKDKITAFIVERDFGGVTNGKPEDKLGIRGSNTCEVHFENTKIPVENILGEVGDGFKVAMNILNSGRFSMGSVVAGLLKRLIEMTAEYACTRKQFNKRLSEFGLIQEKFALMAQKAYVMESMTYLTAGMLDQPGFPDCSIEAAMVKVFSSEAAWQCVSEALQILGGLGYTRDYPYERILRDTRILLIFEGTNEILRMYIALTGLQHAGRILTTRIHELKQAKVSTVMDTVGRRLRDSLGRTVDLGLTGNHGVVHPSLADSANKFEENTYCFGRTVETLLLRFGKTIMEEQLVLKRVANILINLYGMTAVLSRASRSIRIGLRNHDHEVLLANTFCVEAYLQNLFSLSQLDKYAPENLDEQIKKVSQQILEKRAYICAHPLDRTC
As for B1, the binding entry in test [6] and in test [7] was “binds” throughout.

(Values after doi:10.1101/808311.)
